Measurements from paper PMC4459816.
These are yes or no findings as the source states them, for the method shown. Binding seen in cells or lysates may run through a third protein. Some entries that bind do so weakly or less than the wild type.

By UniProt entry, the sequences of proteins in these tests, tags left out. Residues count along the entry.
UniProt Q02242, residues 25-288: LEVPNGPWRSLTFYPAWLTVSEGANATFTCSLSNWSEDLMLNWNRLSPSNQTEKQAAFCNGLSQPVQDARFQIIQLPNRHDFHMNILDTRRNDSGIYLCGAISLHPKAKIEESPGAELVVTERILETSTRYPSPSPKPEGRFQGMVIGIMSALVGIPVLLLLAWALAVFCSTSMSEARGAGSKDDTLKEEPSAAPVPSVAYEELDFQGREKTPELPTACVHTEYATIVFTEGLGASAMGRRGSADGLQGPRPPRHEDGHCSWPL
UniProt P39688: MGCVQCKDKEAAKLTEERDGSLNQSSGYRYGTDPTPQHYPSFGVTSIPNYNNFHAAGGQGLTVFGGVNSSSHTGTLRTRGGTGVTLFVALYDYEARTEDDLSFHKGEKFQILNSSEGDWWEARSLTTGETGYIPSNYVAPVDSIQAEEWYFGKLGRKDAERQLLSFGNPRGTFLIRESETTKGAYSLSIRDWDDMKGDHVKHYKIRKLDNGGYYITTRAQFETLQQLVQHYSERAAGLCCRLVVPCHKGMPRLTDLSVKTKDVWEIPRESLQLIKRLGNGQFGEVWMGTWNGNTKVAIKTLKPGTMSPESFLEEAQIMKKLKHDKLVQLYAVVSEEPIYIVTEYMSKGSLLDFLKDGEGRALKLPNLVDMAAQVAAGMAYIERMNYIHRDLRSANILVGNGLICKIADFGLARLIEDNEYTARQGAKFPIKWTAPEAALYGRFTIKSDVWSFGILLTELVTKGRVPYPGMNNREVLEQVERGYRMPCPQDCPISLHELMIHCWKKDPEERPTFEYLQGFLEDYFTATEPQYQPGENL

How the values were obtained:
Assay in all cases: co-IP; endogenous proteins; CD8+ CTLs stimulated with hydrogen peroxide and sodium orthovanadate; lysates incubated with various antibodies and protein G-coupled sepharose beads; immunoblotting with antibodies against SKAP55, ADAP and Fyn
[1] = target: T1, SKAP55 (src kinase-associated protein of 55 kDa) (mouse (endogenous in CD8+ CTLs)) (UniProt Q3UUV5)
T1 sequence: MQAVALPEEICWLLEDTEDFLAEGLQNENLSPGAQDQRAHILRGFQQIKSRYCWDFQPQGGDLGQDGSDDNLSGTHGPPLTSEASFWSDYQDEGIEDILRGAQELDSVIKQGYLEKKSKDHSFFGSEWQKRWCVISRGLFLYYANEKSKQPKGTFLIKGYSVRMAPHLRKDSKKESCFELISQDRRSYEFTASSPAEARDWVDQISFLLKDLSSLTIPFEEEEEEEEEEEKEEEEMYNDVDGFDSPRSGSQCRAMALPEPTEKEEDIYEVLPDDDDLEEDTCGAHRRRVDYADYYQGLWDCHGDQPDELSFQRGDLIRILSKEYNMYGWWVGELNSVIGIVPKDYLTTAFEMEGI

[2] = target: T2, ADAP (adhesion and degranulation promoting adaptor protein) (mouse (endogenous in CD8+ CTLs)) (UniProt O35601)
T2 sequence: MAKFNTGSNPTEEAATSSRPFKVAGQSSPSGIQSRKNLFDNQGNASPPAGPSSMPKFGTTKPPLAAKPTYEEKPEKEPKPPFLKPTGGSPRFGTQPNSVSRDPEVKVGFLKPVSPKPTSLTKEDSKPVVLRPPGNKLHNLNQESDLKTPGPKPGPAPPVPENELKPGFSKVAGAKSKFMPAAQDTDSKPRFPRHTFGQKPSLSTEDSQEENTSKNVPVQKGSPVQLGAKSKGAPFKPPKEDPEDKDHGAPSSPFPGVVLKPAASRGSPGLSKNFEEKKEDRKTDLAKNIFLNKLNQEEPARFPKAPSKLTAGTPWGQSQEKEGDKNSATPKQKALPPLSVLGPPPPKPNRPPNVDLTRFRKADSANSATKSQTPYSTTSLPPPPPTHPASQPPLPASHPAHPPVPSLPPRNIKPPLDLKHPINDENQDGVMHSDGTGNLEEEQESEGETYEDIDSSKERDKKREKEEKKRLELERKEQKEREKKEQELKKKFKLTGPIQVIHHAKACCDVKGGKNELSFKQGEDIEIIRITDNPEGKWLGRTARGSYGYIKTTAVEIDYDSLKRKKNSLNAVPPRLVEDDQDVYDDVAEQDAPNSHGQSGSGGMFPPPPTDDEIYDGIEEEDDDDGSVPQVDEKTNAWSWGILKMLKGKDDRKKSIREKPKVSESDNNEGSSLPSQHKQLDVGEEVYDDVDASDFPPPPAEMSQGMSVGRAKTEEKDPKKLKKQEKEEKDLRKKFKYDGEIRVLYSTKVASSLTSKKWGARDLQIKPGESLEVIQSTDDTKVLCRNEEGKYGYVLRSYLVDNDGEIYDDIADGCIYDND

[3] = target: Programmed Cell Death Receptor 1 (PD-1) (mouse (endogenous in CD8+ CTLs)) (UniProt Q02242)

Measured: binding

Fyn (from UniProt P39688 1-537) (enzyme)
binds: all assays above
